Results: paper PMC11572293
Results are given in words; binding and its absence hold for the method and conditions named. In cells and extracts the contact can be indirect.

By UniProt entry, the sequences of proteins in these tests, tags left out.
UniProt P04406: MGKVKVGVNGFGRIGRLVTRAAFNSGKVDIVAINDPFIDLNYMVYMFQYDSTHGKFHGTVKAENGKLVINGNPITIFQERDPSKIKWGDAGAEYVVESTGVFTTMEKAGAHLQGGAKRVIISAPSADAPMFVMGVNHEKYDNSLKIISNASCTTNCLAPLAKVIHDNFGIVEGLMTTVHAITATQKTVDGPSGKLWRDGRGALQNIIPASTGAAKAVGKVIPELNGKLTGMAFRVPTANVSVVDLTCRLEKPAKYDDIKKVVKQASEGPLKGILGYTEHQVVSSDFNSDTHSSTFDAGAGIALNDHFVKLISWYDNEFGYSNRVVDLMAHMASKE
UniProt Q04206: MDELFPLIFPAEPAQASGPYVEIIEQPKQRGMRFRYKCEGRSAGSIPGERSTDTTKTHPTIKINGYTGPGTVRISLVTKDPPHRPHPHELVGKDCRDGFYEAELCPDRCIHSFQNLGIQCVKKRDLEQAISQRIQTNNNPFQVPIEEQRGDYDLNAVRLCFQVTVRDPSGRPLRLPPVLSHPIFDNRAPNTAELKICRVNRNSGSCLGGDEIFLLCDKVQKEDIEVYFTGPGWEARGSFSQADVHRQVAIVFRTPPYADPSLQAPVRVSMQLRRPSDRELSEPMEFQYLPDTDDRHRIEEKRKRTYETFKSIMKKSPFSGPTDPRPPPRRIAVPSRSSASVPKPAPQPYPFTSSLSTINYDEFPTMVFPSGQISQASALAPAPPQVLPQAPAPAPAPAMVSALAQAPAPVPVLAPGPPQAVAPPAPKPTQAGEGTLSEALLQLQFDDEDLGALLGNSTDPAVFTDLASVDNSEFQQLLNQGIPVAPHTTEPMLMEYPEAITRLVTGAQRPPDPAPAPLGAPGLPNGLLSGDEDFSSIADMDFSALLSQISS

Biological target: GAPDH (human (endogenous in MDS-L)) (UniProt P04406)
Assay: co-IP; MDS-L cells treated with 0.2% Triton X-100 for 5 min and washed; whole cell lysates, equal amounts of protein, immunoprecipitated with α-tubulin, IgG and GAPDH antibodies; co-immunoprecipitated NF-κB detected by Western blotting with an anti-p65 antibody; methods name treatment of cells with GNA, paclitaxel and TN16 for 16 h

NF-κB subunit p65 (RelA) (from UniProt Q04206 1-551)
binding: no binding
